The results in this text go back to the supplement of paper PMC9763283.

Holding throughout (test): area under growth-rate inhibition curve (AUC GRI) (dimensionless (GR-based AUC)); higher = less growth inhibition
What all share (details): exposure time: 72 h; concentrations: 0.1, 1, 10 uM

One assay has as its system SKBR3-P. An outline of the steps: (§1)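 The area under the growth-rate inhibition curve was measured in six breast cancer cell line models, covering triple-negative lines and HER2+ lines, both parental and resistant to a two-drug combination. Cells were exposed to compound at 0.1, 1 or 10 µM for 72 h, fixed in 4% paraformaldehyde, and nuclei were stained with Hoechst 33342 or DAPI for imaging and counting. Day 0 plates, untreated Day 3 plates and DMSO controls served to correct growth across 2 biological replicates.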

The subject of another assay is MDA-MB-231. The essentials: as §1
For a further assay, the system named is MDA-MB-468. The essentials:
as §1

The subject of the next assay is SKBR3-LTR. The essentials:
as §1

The test system of another assay is BT474-LTR. An outline of the steps:
as §1

Another assay concerns BT474-P. The essentials: as §1

As for `CN1C2CCC1CC(OC(=O)C(O)c1ccccc1)C2.[Br-].[H+]` (stereo unspecified) [Homatropine Bromide], the “area under growth-rate inhibition curve” value in the assay on SKBR3-P came out at 1.04; in the assay on MDA-MB-231, 1.03; in the assay with MDA-MB-468, 1.04; in the assay on SKBR3-LTR, 1.08; in the assay with BT474-LTR, 1.11; with BT474-P it was 1.02.
